Experimental data taken from article PMC5997682.
No constants are given. Whether binding was seen depends on the method and setting. In cells and extracts the contact can be indirect. Some entries that bind do so weakly or less than the wild type.

Protein sequences, listed by entry. Tags and fused reporters are not part of them.
UniProt Q05397: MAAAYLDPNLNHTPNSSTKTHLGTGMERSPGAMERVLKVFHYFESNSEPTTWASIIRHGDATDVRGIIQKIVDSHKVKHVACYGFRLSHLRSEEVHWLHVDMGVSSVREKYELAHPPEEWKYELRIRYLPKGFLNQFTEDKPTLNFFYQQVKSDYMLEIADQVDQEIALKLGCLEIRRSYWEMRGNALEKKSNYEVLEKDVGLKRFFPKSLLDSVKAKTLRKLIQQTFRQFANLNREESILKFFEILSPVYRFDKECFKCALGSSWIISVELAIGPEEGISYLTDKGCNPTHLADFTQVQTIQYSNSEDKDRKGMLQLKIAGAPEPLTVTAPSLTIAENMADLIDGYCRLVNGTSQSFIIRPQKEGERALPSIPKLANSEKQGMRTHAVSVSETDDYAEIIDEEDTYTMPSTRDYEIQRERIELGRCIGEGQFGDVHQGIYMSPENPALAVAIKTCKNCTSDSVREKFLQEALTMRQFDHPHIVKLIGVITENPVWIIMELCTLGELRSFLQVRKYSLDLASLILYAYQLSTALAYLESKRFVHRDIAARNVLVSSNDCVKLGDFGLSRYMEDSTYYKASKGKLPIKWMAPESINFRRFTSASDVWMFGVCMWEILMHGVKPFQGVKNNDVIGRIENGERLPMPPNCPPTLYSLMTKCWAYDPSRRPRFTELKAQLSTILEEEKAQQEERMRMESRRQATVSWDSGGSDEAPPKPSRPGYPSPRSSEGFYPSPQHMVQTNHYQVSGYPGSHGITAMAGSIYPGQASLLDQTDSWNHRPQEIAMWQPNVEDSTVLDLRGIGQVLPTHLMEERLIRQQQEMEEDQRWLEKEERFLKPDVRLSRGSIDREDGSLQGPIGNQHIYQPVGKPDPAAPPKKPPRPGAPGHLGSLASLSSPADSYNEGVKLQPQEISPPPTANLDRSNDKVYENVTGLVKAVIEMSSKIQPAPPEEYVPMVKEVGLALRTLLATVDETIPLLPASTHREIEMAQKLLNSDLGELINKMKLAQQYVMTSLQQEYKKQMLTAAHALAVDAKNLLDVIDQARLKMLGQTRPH

Biological target: T1, endogenous Caspr1 in HBMECs (human (endogenous in HBMECs)) (UniProt P78357)
T1 sequence: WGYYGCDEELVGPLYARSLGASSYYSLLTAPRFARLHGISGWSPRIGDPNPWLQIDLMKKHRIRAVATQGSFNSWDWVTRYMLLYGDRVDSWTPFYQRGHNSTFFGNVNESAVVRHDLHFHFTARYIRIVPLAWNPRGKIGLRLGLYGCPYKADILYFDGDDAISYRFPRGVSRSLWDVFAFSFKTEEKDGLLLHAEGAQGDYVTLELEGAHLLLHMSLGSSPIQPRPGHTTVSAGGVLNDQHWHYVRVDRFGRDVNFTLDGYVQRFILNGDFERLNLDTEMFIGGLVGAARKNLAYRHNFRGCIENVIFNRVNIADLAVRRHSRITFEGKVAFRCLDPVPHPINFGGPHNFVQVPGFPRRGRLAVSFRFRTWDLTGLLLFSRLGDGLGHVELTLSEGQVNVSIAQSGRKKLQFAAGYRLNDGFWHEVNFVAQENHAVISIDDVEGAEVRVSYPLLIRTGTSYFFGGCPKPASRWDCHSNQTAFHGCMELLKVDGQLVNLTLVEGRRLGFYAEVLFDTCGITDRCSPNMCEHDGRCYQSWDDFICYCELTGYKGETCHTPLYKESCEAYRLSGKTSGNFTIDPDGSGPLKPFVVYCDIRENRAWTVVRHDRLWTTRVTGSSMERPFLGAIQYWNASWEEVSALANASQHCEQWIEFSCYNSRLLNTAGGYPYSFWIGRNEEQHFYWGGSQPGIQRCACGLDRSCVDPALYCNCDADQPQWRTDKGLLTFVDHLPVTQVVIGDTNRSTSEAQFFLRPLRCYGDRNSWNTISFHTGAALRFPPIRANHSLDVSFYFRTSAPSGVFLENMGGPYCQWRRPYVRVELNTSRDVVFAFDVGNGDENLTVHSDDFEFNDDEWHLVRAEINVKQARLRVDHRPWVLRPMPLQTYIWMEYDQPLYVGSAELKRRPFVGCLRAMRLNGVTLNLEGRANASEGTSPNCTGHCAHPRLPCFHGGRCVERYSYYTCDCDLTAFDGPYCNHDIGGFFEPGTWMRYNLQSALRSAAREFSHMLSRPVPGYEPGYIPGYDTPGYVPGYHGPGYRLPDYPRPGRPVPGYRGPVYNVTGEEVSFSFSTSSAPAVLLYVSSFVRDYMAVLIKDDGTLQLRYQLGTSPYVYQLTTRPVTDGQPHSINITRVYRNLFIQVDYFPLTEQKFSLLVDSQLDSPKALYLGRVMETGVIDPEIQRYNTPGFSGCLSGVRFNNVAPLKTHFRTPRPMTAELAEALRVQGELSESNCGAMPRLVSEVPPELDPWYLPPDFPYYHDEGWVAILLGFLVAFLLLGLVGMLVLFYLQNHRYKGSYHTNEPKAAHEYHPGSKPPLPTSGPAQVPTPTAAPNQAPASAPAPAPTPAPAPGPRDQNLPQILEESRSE
Test: co-IP

binding: binds
Substance: focal adhesion kinase (FAK), endogenous in HBMECs (from UniProt Q05397 1-1052) (enzyme)
